Reference: PubChem BioAssay AID1159584 (Peter MacCallum Cancer Centre, 2016)

Aim: 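Genes that CDH1-null MCF10A cells selectively depend on to survive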 (primary screen)
Cells: human MCF10A breast epithelial cells, parental and CDH1-null
Reagent: siRNA against human genes
Detection: 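ATP luminescence (CellTiter-Glo) viability per line relative to mean mock wells over all plates, and the ratio of CDH1-null to parental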
Scale: CDH1-null / parental viability ratio: higher = CDH1-null cells survive relatively better than parental; CDH1-null viability vs mock: higher = more viable CDH1-null cells; parental viability vs mock: higher = more viable parental cells
The deposit covers about 18,000 reagents; shown is a part drawn at random. Not given: the amount of reagent, the time to read-out.

| gene | CDH1-null / parental viability ratio | CDH1-null viability vs mock (fraction of mock) | parental viability vs mock (fraction of mock) |
| --- | --- | --- | --- |
| TRIM49C (tripartite motif containing 49C) | 0.98 | 0.96 | 0.98 |
| ASB4 (ankyrin repeat and SOCS box containing 4) | 1.03 | 0.8 | 0.78 |
| FAM209A (family with sequence similarity 209 member A) | 0.9 | 0.56 | 0.62 |
| IL4 (interleukin 4) | 0.77 | 0.76 | 0.99 |
| AP3M2 (adaptor related protein complex 3 subunit mu 2) | 0.81 | 0.44 | 0.54 |
| CDRT15P3 (CDRT15 pseudogene 3) | 0.72 | 0.29 | 0.4 |
| HLA-C (major histocompatibility complex, class I, C) | 0.96 | 0.94 | 0.98 |
| CALHM1 (calcium homeostasis modulator 1) | 1.18 | 0.92 | 0.78 |
| IGFL4 (IGF like family member 4) | 1.02 | 0.92 | 0.9 |
| CLPTM1L (CLPTM1 like) | 1.11 | 0.8 | 0.72 |
| NHP2 (NHP2 ribonucleoprotein) | 0.83 | 0.4 | 0.48 |
| SNX15 (sorting nexin 15) | 1.06 | 0.87 | 0.82 |
| MED22 (mediator complex subunit 22) | 1.14 | 0.5 | 0.44 |
| ATRAID (all-trans retinoic acid induced differentiation factor) | 1.31 | 0.42 | 0.32 |
| CLDN10 (claudin 10) | 0.98 | 0.94 | 0.96 |
| MCM10 (minichromosome maintenance 10 replication initiation factor) | 0.9 | 0.74 | 0.82 |
| TBX10 (T-box transcription factor 10) | 0.73 | 0.6 | 0.82 |
| IPO7 (importin 7) | 1.11 | 0.93 | 0.84 |
| USP50 (ubiquitin specific peptidase 50) | 1.15 | 0.93 | 0.81 |
| POLQ (DNA polymerase theta) | 1.03 | 1.08 | 1.05 |
| ATPAF2 (ATP synthase mitochondrial F1 complex assembly factor 2) | 0.99 | 0.88 | 0.89 |
| OTUD5 (OTU deubiquitinase 5) | 0.98 | 0.64 | 0.65 |
| BCAT1 (branched chain amino acid transaminase 1) | 1.17 | 0.94 | 0.8 |
| TSLIG3A (tRNA splicing ligase complex subunit 3A) | 1.01 | 0.76 | 0.75 |
| ANKRD23 (ankyrin repeat domain 23) | 0.94 | 0.66 | 0.7 |
| SPATA31H1 (SPATA31 subfamily H member 1) | 0.9 | 0.35 | 0.39 |
| C9orf50 (chromosome 9 open reading frame 50) | 1 | 0.8 | 0.8 |
| ERP27 (endoplasmic reticulum protein 27) | 0.92 | 0.7 | 0.76 |
| RCCD1 (RCC1 domain containing 1) | 0.94 | 0.97 | 1.03 |
| ZNF709 (zinc finger protein 709) | 0.95 | 0.84 | 0.88 |
| TUBE1 (tubulin epsilon 1) | 1 | 0.96 | 0.96 |
| COXFA4L3 (cytochrome c oxidase associated subunit FA4L3) | 0.9 | 0.57 | 0.63 |
| DNAJB8 (DnaJ heat shock protein family (Hsp40) member B8) | 0.92 | 0.7 | 0.76 |
| FUT6 (fucosyltransferase 6) | 1.13 | 1.02 | 0.9 |
| PGLYRP2 (peptidoglycan recognition protein 2) | 0.91 | 0.82 | 0.9 |
| SLC35F6 | 0.78 | 0.7 | 0.9 |
| NOVA1 (NOVA alternative splicing regulator 1) | 0.99 | 1.06 | 1.07 |
| GJC1 (gap junction protein gamma 1) | 1.16 | 1.23 | 1.06 |
| TEX11 (testis expressed 11) | 0.85 | 0.7 | 0.82 |
| UNC13B (unc-13 homolog B) | 0.94 | 0.9 | 0.96 |
| FGFR1OP2 (FGFR1 oncogene partner 2) | 0.97 | 0.75 | 0.77 |
| BLCAP (BLCAP apoptosis inducing factor) | 1.17 | 0.47 | 0.4 |
| PCK2 (phosphoenolpyruvate carboxykinase 2, mitochondrial) | 0.95 | 0.76 | 0.8 |
| INTS7 (integrator complex subunit 7) | 0.93 | 0.63 | 0.68 |
| CNEP1R1 (CTD nuclear envelope phosphatase 1 regulatory subunit 1) | 1.02 | 0.85 | 0.83 |
| SPIC (Spi-C transcription factor) | 1.06 | 1.04 | 0.98 |
| NSD3 (nuclear receptor binding SET domain protein 3) | 1 | 1 | 1 |
| ZNF468 (zinc finger protein 468) | 0.89 | 0.68 | 0.76 |
| DUS3L (dihydrouridine synthase 3 like) | 1.16 | 0.36 | 0.31 |
| VILL (villin like) | 1.4 | 0.84 | 0.6 |
| CCN3 (cellular communication network factor 3) | 1.05 | 0.99 | 0.94 |
| IPO4 (importin 4) | 1.05 | 0.9 | 0.86 |
| MMP10 (matrix metallopeptidase 10) | 1.5 | 0.66 | 0.44 |
| OSCAR (osteoclast associated Ig-like receptor) | 0.81 | 0.55 | 0.68 |
| OOSP2 (oocyte secreted protein 2) | 1.05 | 0.86 | 0.82 |
| LMOD3 (leiomodin 3) | 0.91 | 0.67 | 0.74 |
| RPS8 (ribosomal protein S8) | 1.27 | 0.38 | 0.3 |
| CUBN (cubilin) | 0.98 | 0.94 | 0.96 |
| ITGB3BP (integrin subunit beta 3 binding protein) | 1.15 | 1.15 | 1 |
| CERKL (CERK like autophagy regulator) | 1.11 | 1 | 0.9 |
| PRIM2 (DNA primase subunit 2) | 0.69 | 0.59 | 0.86 |
| CRISPLD1 (cysteine rich secretory protein LCCL domain containing 1) | 1.04 | 0.79 | 0.76 |
| WWC2 (WW and C2 domain containing 2) | 0.81 | 0.73 | 0.9 |
| GAGE2E (G antigen 2E) | 0.93 | 0.76 | 0.82 |
| SSMEM1 (serine rich single-pass membrane protein 1) | 0.79 | 0.57 | 0.72 |
| MROH2B (maestro heat like repeat family member 2B) | 0.93 | 0.89 | 0.96 |
| NHLH1 (nescient helix-loop-helix 1) | 1.21 | 0.63 | 0.52 |
| CCDC63 (coiled-coil domain containing 63) | 0.94 | 0.78 | 0.83 |

Part of the list above, set out differently:
{"gene":"CALHM1 (calcium homeostasis modulator 1)","CDH1-null / parental viability ratio":1.18,"CDH1-null viability vs mock (fraction of mock)":0.92,"parental viability vs mock (fraction of mock)":0.78}
{"gene":"IGFL4 (IGF like family member 4)","CDH1-null / parental viability ratio":1.02,"CDH1-null viability vs mock (fraction of mock)":0.92,"parental viability vs mock (fraction of mock)":0.9}
{"gene":"CLPTM1L (CLPTM1 like)","CDH1-null / parental viability ratio":1.11,"CDH1-null viability vs mock (fraction of mock)":0.8,"parental viability vs mock (fraction of mock)":0.72}
{"gene":"NHP2 (NHP2 ribonucleoprotein)","CDH1-null / parental viability ratio":0.83,"CDH1-null viability vs mock (fraction of mock)":0.4,"parental viability vs mock (fraction of mock)":0.48}
{"gene":"SNX15 (sorting nexin 15)","CDH1-null / parental viability ratio":1.06,"CDH1-null viability vs mock (fraction of mock)":0.87,"parental viability vs mock (fraction of mock)":0.82}
{"gene":"MED22 (mediator complex subunit 22)","CDH1-null / parental viability ratio":1.14,"CDH1-null viability vs mock (fraction of mock)":0.5,"parental viability vs mock (fraction of mock)":0.44}
